Source: article PMC12646006
Results are given in words; binding and its absence hold for the method and conditions named. In cells and extracts the contact can be indirect. A result given as binding can be weak or reduced; the word gives no strength. Tags and fused reporters may be left off the sequences shown.

Target: Flag-3D of CVB3 (RNA-dependent RNA polymerase 3D^pol of Coxsackievirus B3) (Coxsackievirus B3)
Assay: co-IP; HEK293T cells transfected with the indicated plasmids for 48 h; lysate (NP40 lysis buffer) on anti-Flag magnetic beads, mouse IgG as control; immunoblot; the legend calls it 'denatured Co-IP'

B1: HA-TRIM4 (tripartite motif 4, E3 ligase) (enzyme, UniProt Q9C037 1-500)
chain: MEAEDIQEELTCPICLDYFQDPVSIECGHNFCRGCLHRNWAPGGGPFPCPECRHPSAPAALRPNWALARLTEKTQRRRLGPVPPGLCGRHWEPLRLFCEDDQRPVCLVCRESQEHQTHAMAPIDEAFESYRTGNFDIHVDEWKRRLIRLLLYHFKQEEKLLKSQRNLVAKMKKVMHLQDVEVKNATQWKDKIKSQRMRISTEFSKLHNFLVEEEDLFLQRLNKEEEETKKKLNENTLKLNQTIASLKKLILEVGEKSQAPTLELLQNPKEVLTRSEIQDVNYSLEAVKVKTVCQIPLMKEMLKRFQVAVNLAEDTAHPKLVFSQEGRYVKNTASASSWPVFSSAWNYFAGWRNPQKTAFVERFQHLPCVLGKNVFTSGKHYWEVESRDSLEVAVGVCREDVMGITDRSKMSPDVGIWAIYWSAAGYWPLIGFPGTPTQQEPALHRVGVYLDRGTGNVSFYSAVDGVHLHTFSCSSVSRLRPFFWLSPLASLVIPPVTDRK
binding: binds
